Data reported in article PMC12781765.
Results are given in words; binding and its absence hold for the method and conditions named. Binding seen in cells or lysates may run through a third protein. Some binding calls cover weakened binding; strength is not graded here. For some assays here: Sequences can lack the tags named with a protein.

Amino acid sequences for entries named in this document (tags omitted). A change or cut given only in a name is not applied to a line headed by its entry. Chains listed by the source or under a name are the forms on record and can include a tag or linker.
UniProt Q9NPQ8: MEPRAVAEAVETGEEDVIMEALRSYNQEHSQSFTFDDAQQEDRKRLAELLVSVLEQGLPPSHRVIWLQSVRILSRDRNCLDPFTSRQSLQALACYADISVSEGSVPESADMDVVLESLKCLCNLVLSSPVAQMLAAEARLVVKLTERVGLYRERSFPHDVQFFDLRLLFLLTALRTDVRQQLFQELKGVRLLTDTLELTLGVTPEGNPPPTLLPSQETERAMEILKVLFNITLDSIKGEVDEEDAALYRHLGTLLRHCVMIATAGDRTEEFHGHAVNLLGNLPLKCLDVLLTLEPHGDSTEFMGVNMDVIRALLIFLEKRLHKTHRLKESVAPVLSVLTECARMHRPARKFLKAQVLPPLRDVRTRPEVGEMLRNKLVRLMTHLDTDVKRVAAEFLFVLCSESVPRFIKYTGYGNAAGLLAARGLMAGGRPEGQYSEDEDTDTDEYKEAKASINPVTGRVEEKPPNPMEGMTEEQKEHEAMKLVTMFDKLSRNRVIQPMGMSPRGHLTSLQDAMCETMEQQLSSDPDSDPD
UniProt P16520: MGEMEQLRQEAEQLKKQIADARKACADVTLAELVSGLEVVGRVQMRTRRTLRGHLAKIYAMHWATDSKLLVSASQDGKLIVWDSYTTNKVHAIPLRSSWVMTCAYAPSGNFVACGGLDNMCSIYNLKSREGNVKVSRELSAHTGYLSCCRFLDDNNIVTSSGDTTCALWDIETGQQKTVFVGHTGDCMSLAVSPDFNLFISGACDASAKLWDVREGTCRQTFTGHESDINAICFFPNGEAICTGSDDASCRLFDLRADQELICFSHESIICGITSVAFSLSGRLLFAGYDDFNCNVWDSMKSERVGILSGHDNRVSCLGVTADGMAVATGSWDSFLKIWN
UniProt P09471: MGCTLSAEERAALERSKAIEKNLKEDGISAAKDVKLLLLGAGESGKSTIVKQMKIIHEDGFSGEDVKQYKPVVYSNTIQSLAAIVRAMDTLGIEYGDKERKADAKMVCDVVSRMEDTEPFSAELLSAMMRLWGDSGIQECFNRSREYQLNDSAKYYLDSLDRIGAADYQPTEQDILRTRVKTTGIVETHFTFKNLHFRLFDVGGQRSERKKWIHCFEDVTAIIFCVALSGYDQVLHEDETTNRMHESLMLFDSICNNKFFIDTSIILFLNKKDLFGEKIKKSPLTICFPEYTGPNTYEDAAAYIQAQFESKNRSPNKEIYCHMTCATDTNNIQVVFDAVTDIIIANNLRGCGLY
Gαo L39_G40insV (non-tagged) (P09471-1, form named): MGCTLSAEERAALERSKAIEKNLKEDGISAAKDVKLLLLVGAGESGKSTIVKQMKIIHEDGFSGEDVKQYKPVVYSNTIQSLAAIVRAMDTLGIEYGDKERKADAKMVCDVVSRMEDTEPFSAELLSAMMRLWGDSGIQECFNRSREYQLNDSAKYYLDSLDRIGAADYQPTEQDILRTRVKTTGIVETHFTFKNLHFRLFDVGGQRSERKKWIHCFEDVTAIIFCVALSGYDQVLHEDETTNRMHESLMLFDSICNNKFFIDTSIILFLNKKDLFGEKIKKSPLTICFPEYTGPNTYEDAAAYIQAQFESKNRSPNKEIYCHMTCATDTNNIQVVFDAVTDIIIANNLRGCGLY

Assays:
GFP-Ric8B = target: T1, GFP-Ric8B (UniProt Q9NVN3); assay: co-IP; HEK293T co-transfected with the GFP-tagged construct and non-tagged Gαo variants; IP of the GFP fusion with a recombinant GST-tagged nanobody against GFP; Western blot with antibodies against Gαo and GFP; blots quantified with ImageJ
T1 sequence: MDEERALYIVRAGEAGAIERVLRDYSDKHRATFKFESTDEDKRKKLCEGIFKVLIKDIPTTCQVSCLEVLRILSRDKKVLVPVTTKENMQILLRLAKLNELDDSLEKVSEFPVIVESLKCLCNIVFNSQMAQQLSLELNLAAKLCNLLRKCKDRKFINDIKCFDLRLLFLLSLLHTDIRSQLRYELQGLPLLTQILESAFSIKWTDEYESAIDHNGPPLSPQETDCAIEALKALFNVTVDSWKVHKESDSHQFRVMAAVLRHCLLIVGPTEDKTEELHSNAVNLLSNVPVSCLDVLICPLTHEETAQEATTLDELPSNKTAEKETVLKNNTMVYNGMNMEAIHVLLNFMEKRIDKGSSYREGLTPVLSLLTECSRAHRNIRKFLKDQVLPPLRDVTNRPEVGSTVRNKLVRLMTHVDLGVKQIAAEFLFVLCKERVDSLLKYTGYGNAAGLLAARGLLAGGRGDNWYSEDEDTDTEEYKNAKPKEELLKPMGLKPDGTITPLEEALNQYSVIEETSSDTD

GFP-Ric8A = GFP-Ric8A (UniProt Q9NPQ8); assay: as above
Venus-tagged Gβ3γ9 = Venus-tagged Gβ3γ9 (UniProt P16520); assay: FRET or BRET; Gβ3γ9 displacement assay, steady state; HEK293T co-transfected with the Go1-CASE plasmid (Gαo^G92-NLuc, Venus-Gβ3γ9) and non-tagged Gαo or empty pcDNA3.1 (1:3 ratio); furimazine 10 µM; reduction of the BRET signal is read
GFP-RGS19 = target: T2, GFP-RGS19 (UniProt P49795); assay: co-IP; HEK293T co-transfected with the GFP-tagged construct and non-tagged Gαo variants; IP of the GFP fusion with a recombinant GST-tagged nanobody against GFP; Western blot with antibodies against Gαo and GFP; blots quantified with ImageJ
T2 sequence: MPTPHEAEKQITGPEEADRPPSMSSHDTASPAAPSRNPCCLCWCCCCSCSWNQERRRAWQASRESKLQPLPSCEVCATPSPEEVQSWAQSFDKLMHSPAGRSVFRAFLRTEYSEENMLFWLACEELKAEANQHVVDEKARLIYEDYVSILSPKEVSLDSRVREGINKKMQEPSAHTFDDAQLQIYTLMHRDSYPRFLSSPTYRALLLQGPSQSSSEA

Substance | binding (GFP-Ric8B) | binding (GFP-Ric8A) | binding (Venus-tagged Gβ3γ9) | binding (GFP-RGS19)
Gαo L39_G40insV (non-tagged) (from UniProt P09471-1 1-354) | binds | binds | – | –
Gαo T327R (non-tagged) (from UniProt P09471-1 1-354) | binds | binds | – | –
Gαo^G92-NLuc (wild-type Gαo internally tagged with nano-luciferase) (from UniProt P09471 1-354) | – | – | binds | –
Gαo T327K (non-tagged) (from UniProt P09471-1 1-354) | binds | binds | – | –
Gαo wild-type (non-tagged) (from UniProt P09471-1 1-354) | – | – | binds | binds
Gαo G203R (DEE17-linked mutant used as control) (from UniProt P09471 1-354) | binds | binds | – | –
